# Assay results taken from US20100144793A1, “NOVEL COMPOUNDS FOR THE TREATMENT OF DISEASES ASSOCIATED WITH AMYLOID OR AMYLOID-LIKE PROTEINS” (AC IMMUNE SA, priority 2006, published 2010).
# The chains behind the UniProt entries cited, without tags or fusion partners. Residues count along the entry.
# UniProt P05067, 672-713 limits assumed: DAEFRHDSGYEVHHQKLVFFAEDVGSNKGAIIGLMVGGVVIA
# Structures can show the parent of a compound that is named as a salt. At least one structure is not confirmed: it was looked up by name or label, or the drawing left a doubt.
# Target: T1, Aβ1-42 (Homo sapiens, UniProt P05067)
# T1 construct: Aβ1-42 lyophilized powder (Bachem) was reconstituted in hexafluoroisopropanol (HFIP) to 1 mM; purchased Bachem
# Assay: Thioflavin T spectrofluorescence assay: inhibition of Aβ1-42 aggregation
# Format: biochemical
# Settings: 10:1 small molecule to Aβ1-42 molar ratio
# Procedure: The objective of this example was to evaluate the capacity of the compounds of the invention to inhibit the aggregation of (Aβ)1-42 peptide and to disaggregate pre-aggregated Aβ1-42 using a thioflavin T spectrofluorescence assay.
# Aβ1-42 lyophilized powder (Bachem) was reconstituted in hexafluoroisopropanol (HFIP) to 1 mM. The peptide solution was sonicated for 15 min at room temperature, agitated overnight, and aliquots were placed into non-siliconized microcentrifuge tubes. The HFIP was then evaporated under a stream of argon. The resulting peptide film was dried under vacuum for 10 min, tightly sealed and stored at −80° C. until used.
# Aβ1-42 peptide film was dissolved in DMSO to reach 400 μM. Assay solution in PBS was prepared in non-siliconized incubation tubes to reach the following concentrations: 330 μM small molecule, 33 μM Aβ1-42, 10 μM thioflavin T (ThT), and 12.8% DMSO. Therefore, the final molar ratio of small molecule to Aβ1-42 was 10:1. A positive control without a small molecule was prepared to measure maximum RFU. […] The solutions were then incubated for 24 h at 37° C., and the spectrofluorescence (relative fluorescence units; RFU) read in six replicates in black 384-well assay plates (Perkin-Elmer) on a Perkin-Elmer FluoroCount spectrofluorometer. Inhibition of aggregation is expressed as mean % inhibition±1 standard deviation (SD) according to the following equation: […]
smiles,measurement,value
"Brc1ccc(-c2cc(NCCNc3cc(-c4ccc(Br)cc4)[nH]n3)n[nH]2)cc1 [Compound 1u, N^1,N^2-bis(5-(4-Bromophenyl)-1H-pyrazol-3-yl)ethane-1,2-diamine bishydrochloride]","inhibition of Aβ1-42 aggregation, in words",strong inhibition of aggregation
